Source: paper PMC10163288
This is one part of the list.

B1: il10ra_site1_normal_mot_6792f2186577ebd01aa11eb855ed7b57_0001_af2_000000149_0001_1_16_H_._HHH_b1_00312_af2_0001_0000400012_0000002_0_af2pred_0001 (protein)
chain: SSSSSSDEEEELEELLEELEKTTDPREIREIYKEIVKLAREADDERARRKALEIFLELSSSSSSS
B2: il10ra_site1_normal_mot_HHH_b2_07440_af2_000000021_0001_1_18_H_._HHH_b1_03229_0001_0000400026_0000002_0 (protein)
chain: SSSSDEEHQEVLRLSREAFRLALRGNPEEARRVLEEAIEIAREIGDERALRMLEELLKTQSSSSS
B3: il10ra_site1_normal_mot_b26a303360aa2756ef5b79665ce52f45_0001_000000179_0001_1_11_H_._HHH_b2_07383_af2_0001_0000200017_0000001_0_af2pred_0001 (protein)
chain: SSSSDSREVVELIREALELLLEGDKEQAEEVLEEAREIAEELNNPLAEHLIELLLRHIRNSSSSS
B4: il10ra_site1_sap_25_mot_5aed09890fd46f02a60ca541bcb2e05a_0001_1_000000092_0001_15_31_H_._01923d483164837742cf829bee572cc5_0001_0001_0000100006_0000002_0_0001_af … (protein)
chain: SSSSDEELEERVEELLEEAKHVDERRLAHILARALRIAAENNNPELIRLVEKVAAELLLRSSSSS
B5: il10ra_site1_sap_15_mot_05ca327611f5605f0dd8494b449afcbf_0001_1_000000248_0001_35_51_H_._HHH_b1_05090_0001_0000300009_0000001_0_0001 (protein)
chain: SSSSSAEELVKEAATRIYELFRNGNPEEAEELAEEVRERLEELGNPQLANLIRVLLKLLKSSSSS
B6: il10ra_site1_normal_mot_HHH_b2_00943_af2_000000149_0001_1_17_H_._HHH_b1_00387_0001_0000600017_0000002_0 (protein)
chain: SSSSDLAELLLRQALKALRNAGDEEAVRRVEEIIEEYEEKGDERLLQEALRLAVELAQEELSSSS
B7: il10ra_site1_sap_15_mot_HHH_b2_02053_af2_000000006_0001_3_19_H_._HHH_b2_05903_0001_0000800036_0000001_0_0001_af2pred_0001 (protein)
chain: SSSSSSDRDERAVRLLLRAAKLVEDEELVKAALRLAEQVARAAGDEEAEKLVEEVKEELSSSSSS
B8: il10ra_site1_sap_15_mot_HHH_b2_08265_af2_000000206_0001_22_38_H_._HHH_b2_03204_af2_0001_0000100004_0000001_0_0001 (protein)
chain: SSDDMLAQAIIHYARAMLENGLIDEEEAEEIIRLAEEASEKDDEELIVEVARLLAEVIRKVATSS
B9: il10ra_site1_normal_mot_HHH_b1_06994_000000193_0001_40_55_H_._HHH_b2_08260_0001_0000200016_0000001_0 (protein)
chain: SSSSSSDEVEELAEEARRLAEEEGDEERAELVEAALRFYEQVGSEFFRESLRFLLEALSSSSSSS
B10: il10ra_site1_sap_34_mot_HHH_b1_06762_000000027_0001_42_56_H_._HHH_b1_03748_af2_0001_0000600013_0000001_0_0001_af2pred_0001 (protein)
chain: SSSSDSTERLLELIRRARELLENGNPEEAREVLEEAREIAEENNDYLTLELLRKLEEELESSSSS
B11: il10ra_site1_normal_mot_HHH_b2_01397_000000078_0001_23_39_H_._HHH_b1_01677_0001_0000100006_0000001_0 (protein)
chain: SSSSSSDERAVRRLLHAARDIEDPEYVELTLRFARALAEDTNNEELQELVERVEEELKSSSSSSS
B12: il10ra_site1_normal_mot_HHH_b1_05609_af2_000000134_0001_1_18_H_._HHH_b2_05432_0001_0000300041_0000001_1 (protein)
chain: SSSSDEEVIQEVLELLREIFRLLLRGNEEEAKRVLEEVKELAEKYNNEELERAVEIYEEAASSSS
B13: il10ra_site1_sap_16_mot_HHH_b1_06789_af2_000000041_0001_1_20_H_._HHH_b1_06879_af2_0001_0000300030_0000001_0_0001 (protein)
chain: SSSSSDNEEALRLSLEAFRLALRGDPEEARRVLEEALELAEEAGNERLARLIEDMLRLLSSSSSS
B14: il10ra_site1_sap_12_mot_HHH_b2_03425_000000200_0001_22_39_H_._HHH_b1_00059_0001_0000100004_0000001_0_0001 (protein)
chain: SSSSDEEREELEELIEELERLLKNGDPEEALRVAQRAIRLAFQLNDPELLRELWEVIKRNFSSSS
B15: il10ra_site1_sap_14_mot_a4073ed34bad1529e7d46a7d39fa26d0_0001_af2_000000058_0001_1_11_H_._HHH_b2_04068_0001_0000200015_0000001_0_0001 (protein)
chain: SSSSAEEIFEAVLEALRLAAERNDEEAFRELLELSIRWVERGDPELEEELEELAKEILERLSSSS
B16: il10ra_site1_normal_mot_HHH_b2_04945_000000076_0001_1_19_H_._HHH_b2_05056_0001_0000200011_0000002_0 (protein)
chain: SSSSTDELFEEVRRIIEEAVRLYREGNPEEARRLVEEALKEAEELNNLALVWSLEHLLRDLSSSS
B17: il10ra_site1_sap_24_mot_HHH_b2_00622_af2_000000153_0001_40_57_H_._1ad9cd31332199d645683f25bccb3f2f_0001_af2_0001_0000400010_0000001_0_0001 (protein)
chain: SSSSSDEEAEEQVEELLEEAKRIEDREEVLRLLIEANRIAFRAGNDELQREIWRVAQELSSSSSS
B18: il10ra_site1_sap_18_mot_HHH_b1_03273_000000263_0001_1_14_H_._HEEHE_2123_0001_0000200014_0000001_0_0001_af2pred_0001 (protein)
chain: SSSSSSNEEETHARALIFFAKYATNPDAARIALELAEEILEKLNNEELLKEVRRLLEELSSSSSS
B19: il10ra_site1_sap_20_mot_HHH_b2_07440_af2_000000021_0001_1_18_H_._HHH_b1_07372_0001_0000200039_0000001_1_0001_af2pred_0001 (protein)
chain: SSSSDEELEEEIEELLREVEELGNPLIAESIRRLLEDFRQHGDPDLLELAREATELARKAGSSSS
B20: il10ra_site1_sap_15_mot_HHH_b2_05686_000000041_0001_1_18_H_._HHH_b1_05100_af2_0001_0000100001_0000001_0_0001 (protein)
chain: SSSSDEEERLKELEEEIKEAIENNDTHEALHLVYELVRLAAELNDEEVLELAQELIKEVTSSSSS
B21: il10ra_site1_sap_21_mot_HHH_b2_07569_000000265_0001_38_56_H_._HHH_b2_01727_0001_0000300026_0000002_0_0001 (protein)
chain: SSSSYEKVKEALREAVELQENGNPEEAQKLLERLLEELEEEGDWATLKAVEHLLKLVEQRSSSSS
B22: il10ra_site1_normal_mot_HHH_b2_03568_000000058_0001_1_19_H_._HHH_b2_03434_0001_0000200026_0000001_0 (protein)
chain: SSSSDEAYELAREAIKEIKRLFEEGNKEEAEEFAEEVREQLEKLGNPAAVFAIEHLIRRLSSSSS
B23: il10ra_site1_normal_mot_HHH_b2_01447_af2_000000258_0001_1_20_H_._HHH_b2_04530_0001_0000500037_0000001_1_af2pred_0001 (protein)
chain: SSSSNEDSERVIELIRLVAELEREGDKEEAEEVLREAEEIAEENNNLVLRASLEHLRRLLSSSSS
B24: il10ra_site1_normal_mot_HHH_b2_08186_000000021_0001_43_56_H_._HHH_b2_03966_af2_0001_0000100002_0000002_0 (protein)
chain: SSSSDEEKERIEELLEEARERYEEGDPERVRELLLEALQLAYRIQDPELLQEIWELLKELSSSSS
B25: il10ra_site1_sap_16_mot_HHH_b1_01754_af2_000000279_0001_1_18_H_._HHH_b2_04217_af2_0001_0000300007_0000001_0_0001 (protein)
chain: SSSSDVEEEVKELLEEARELAEKGNPREAIKLLARATRLALKAGDAELLQEVWRVIKELASSSSS
B26: il10ra_site1_normal_mot_8756ee2cf497b5429c717dfc0c0bcfd6_0001_000000186_0001_1_13_H_._HHH_b2_06282_af2_0001_0000100003_0000001_0_af2pred_0001 (protein)
chain: SSSSSEIERLYELARRAAELIHEGDREEAREVVEEARELAEELNNLAARAVLEFLEKHINSSSSS
B27: il10ra_site1_normal_mot_HHH_b2_02337_000000026_0001_38_52_H_._HHH_b2_02614_0001_0000100001_0000001_0 (protein)
chain: SSSSSEEEEESKRLLRELEELLEEGDEERFIQVAQRAAQFAFERSDQELLRAIWELVKKLSSSSS
B28: il10ra_site1_sap_22_mot_HHH_b1_05185_000000011_0001_22_39_H_._HHH_b2_01732_0001_0000200022_0000002_0_0001_af2pred_0001 (protein)
chain: SSSDEERAEELRKEIEELLKRGDDEEAEELLEELLRLAAHLRDPELSYAALRLFALLTQLHSSSS
B29: il10ra_site1_sap_16_mot_HHH_b1_04708_000000195_0001_1_19_H_._HHH_b1_03229_0001_0000400029_0000001_0_0001 (protein)
chain: SSSSDEEEERIRELLEQVEELRKEGDEREAVRLLQEAVQLAYRLKDAELLREIWRLAEEIGSSSS
B30: il10ra_site1_sap_12_mot_HHH_b2_05591_000000091_0001_1_20_H_._8753768fdb24d6d44452682509039a45_0001_1_af2_0001_0000100001_0000002_0_0001 (protein)
chain: SSSSDMKEELARALERIIKQALENGDEESARFLLEALEMLAEELNDPELRELVEELRERLDSSSS
B31: il10ra_site1_sap_35_mot_HHH_b1_07527_000000076_0001_1_15_H_._HHH_b1_03840_af2_0001_0000300016_0000001_0_0001 (protein)
chain: SSSSDELTQEIYELIRELVEAALDGDHERVEELYEEIRELIEEAGNRLMEYQLEFAYRRAQSSSS
B32: il10ra_site1_normal_mot_HHH_b1_02708_af2_000000019_0001_23_39_H_._HHH_b2_02879_af2_0001_0000300013_0000001_0 (protein)
chain: SSSSDEEQRVAELLFRVVRLFAEGNPEEAEKVLEEAKRLAEELGDEELERYVEIAENFVRSSSSS
B33: il10ra_site1_normal_mot_HHH_b2_07569_000000265_0001_38_56_H_._HHH_b2_06896_0001_0000200010_0000001_0 (protein)
chain: SSSSSSEEEEEVEELLEEAKQIPDPEERARVLAEALRVAFEGQNPELVQLVWKVVKELFSSSSSS
B34: il10ra_site1_normal_mot_HHH_b1_03262_af2_000000181_0001_43_57_H_._HHH_b2_01783_0001_0000200010_0000001_0_af2pred_0001 (protein)
chain: SSSSDRDEEAVKRALRLARLAAENGDEEAVKFLLKAAKELAERANDPELERLVEEVIEELSSSSS
B35: il10ra_site1_normal_mot_HHH_b1_04940_000000219_0001_1_18_H_._HHH_b1_08156_0002_0000300031_0000001_0_af2pred_0001 (protein)
chain: SSSSDEIEKSLERLLEALRHAIELGDEERAELAIKDIQHTAELAKDEEVQELVERLREELESSSS
B36: il10ra_site1_normal_mot_HHH_b1_05357_000000034_0001_23_39_H_._HHH_b1_06984_af2_0002_0000100005_0000001_0_af2pred_0001 (protein)
chain: SSSSDRVEELLEEAKEAAERGDKHEAAYLLIRAFALANRLGDPELRELVEEVAQEVLELLSSSSS
B37: il10ra_site1_normal_mot_HHH_b2_03183_af2_000000055_0001_40_56_H_._HHH_b1_04876_0001_0000200022_0000001_0 (protein)
chain: SSSSSEELRELAEAALRLAEQLIEFGDPRAVRFLEESLEKLSKEAKDPEIEEILEEVQELLSSSS

Molecular target: il10ra, Q13651
Assay: yeast display titration

Apparent Kd, inactive:
B1 no binding seen, B2 no binding seen, B3 no binding seen, B4 no binding seen, B5 no binding seen, B6 no binding seen, B7 no binding seen, B8 no binding seen, B9 no binding seen, B10 no binding seen, B11 no binding seen, B12 no binding seen, B13 no binding seen, B14 no binding seen, B15 no binding seen, B16 no binding seen, B17 no binding seen, B18 no binding seen, B19 no binding seen, B20 no binding seen, B21 no binding seen, B22 no binding seen, B23 no binding seen, B24 no binding seen, B25 no binding seen, B26 no binding seen, B27 no binding seen, B28 no binding seen, B29 no binding seen, B30 no binding seen, B31 no binding seen, B32 no binding seen, B33 no binding seen, B34 no binding seen, B35 no binding seen, B36 no binding seen, B37 no binding seen
